PubChem BioAssay AID1259254, NCATS, 2017
In all, the deposit lists about 59,000 reagents; below is a part drawn at random. About 1,550 of them (2.6%) count as active. 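G2 share is only a proxy for re-replication; each gene was hit by three separate siRNAs, and active genes were retested.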 The numbers tell different reagents against one gene apart. Further read-outs or replicates are left out here. The record does not give: the amount of reagent.

Aim: 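Finding genes that stop cells copying their DNA twice in one cycle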 (primary screen)
Cells: human HCT116 colorectal cancer cells
Knock-down reagent: single siRNA against human genes
Timing: 3 days
Measurement: 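Nuclei stained with Hoechst and imaged; cell-cycle phase assigned by DNA content; G2 share scaled per plate, non-targeting siRNA 0%, GMNN siRNA 100%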
Reading the numbers: G2 robust z-score and G2 cells, % of GMNN control: higher = more G2 cells, more excess DNA replication
Call rule: 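Active siRNAs have a G2 robust z of 5 or more median absolute deviations over the median, which in these data means about 38% or higher of GMNN control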

gene | siRNA no. | G2 robust z-score | G2 cells, % of GMNN control | outcome
ACSM3 (acyl-CoA synthetase medium chain family member 3) | 1 | -0.891 | -3.3 | inactive
ACSM3 (acyl-CoA synthetase medium chain family member 3) | 2 | -0.724 | -2.13 | inactive
ACSM3 (acyl-CoA synthetase medium chain family member 3) | 3 | -0.585 | -1.15 | inactive
PDE7B-AS1 (PDE7B antisense RNA 1) | 1 | -1.07 | -4.54 | inactive
PDE7B-AS1 (PDE7B antisense RNA 1) | 2 | -0.511 | -0.631 | inactive
PDE7B-AS1 (PDE7B antisense RNA 1) | 3 | 0.197 | 4.35 | inactive
SMAD9 (SMAD family member 9) | 1 | -0.0672 | 2.49 | inactive
SMAD9 (SMAD family member 9) | 2 | 1.78 | 15.5 | inactive
SMAD9 (SMAD family member 9) | 3 | 1.88 | 16.2 | inactive
TAAR9 (trace amine associated receptor 9) | 1 | 0.236 | 4.63 | inactive
TAAR9 (trace amine associated receptor 9) | 2 | -0.887 | -3.27 | inactive
TAAR9 (trace amine associated receptor 9) | 3 | 0.237 | 4.63 | inactive
ZNF676 (zinc finger protein 676) | 1 | -0.0506 | 2.61 | inactive
ZNF676 (zinc finger protein 676) | 2 | 0.068 | 3.45 | inactive
ZNF676 (zinc finger protein 676) | 3 | -1.01 | -4.14 | inactive
OR1D4 (olfactory receptor family 1 subfamily D member 4) | 1 | 0.645 | 7.51 | inactive
OR1D4 (olfactory receptor family 1 subfamily D member 4) | 2 | 0.719 | 8.02 | inactive
OR1D4 (olfactory receptor family 1 subfamily D member 4) | 3 | 1.01 | 10.1 | inactive
ZMAT3 (zinc finger matrin-type 3) | 1 | -0.211 | 1.48 | inactive
ZMAT3 (zinc finger matrin-type 3) | 2 | -0.521 | -0.696 | inactive
ZMAT3 (zinc finger matrin-type 3) | 3 | 0.232 | 4.6 | inactive
ZBTB46 (zinc finger and BTB domain containing 46) | 1 | -0.586 | -1.15 | inactive
ZBTB46 (zinc finger and BTB domain containing 46) | 2 | -0.0308 | 2.75 | inactive
ZBTB46 (zinc finger and BTB domain containing 46) | 3 | -0.0765 | 2.43 | inactive
GLUD2 (glutamate dehydrogenase 2) | 1 | -0.84 | -2.94 | inactive
GLUD2 (glutamate dehydrogenase 2) | 2 | 1.02 | 10.2 | inactive
GLUD2 (glutamate dehydrogenase 2) | 3 | -0.508 | -0.606 | inactive
ZNF37BP (zinc finger protein 37B, pseudogene) | 1 | -0.596 | -1.22 | inactive
ZNF37BP (zinc finger protein 37B, pseudogene) | 2 | -0.649 | -1.6 | inactive
ZNF37BP (zinc finger protein 37B, pseudogene) | 3 | 0.775 | 8.42 | inactive

A few values from the entries so far:
Under “outcome”, OR1D4 (olfactory receptor family 1 subfamily D member 4) #1 has inactive
Result for OR1D4 (olfactory receptor family 1 subfamily D member 4) #3 under “outcome”: inactive
PDE7B-AS1 (PDE7B antisense RNA 1) #1, G2 robust z-score: -1.07
Under “G2 cells, % of GMNN control”, ZMAT3 (zinc finger matrin-type 3) #1 is entered as 1.48
For “G2 robust z-score”, ZNF676 (zinc finger protein 676) #2 has 0.068
Under “G2 cells, % of GMNN control”, ZBTB46 (zinc finger and BTB domain containing 46) #2 reads 2.75

Next records:
gene | siRNA no. | G2 robust z-score | G2 cells, % of GMNN control | outcome
BSDC1 (BSD domain containing 1) | 1 | 0.272 | 4.88 | inactive
BSDC1 (BSD domain containing 1) | 2 | -0.847 | -2.99 | inactive
BSDC1 (BSD domain containing 1) | 3 | -0.539 | -0.823 | inactive
ZNF444 (zinc finger protein 444) | 1 | 0.353 | 5.45 | inactive
ZNF444 (zinc finger protein 444) | 2 | -1.47 | -7.35 | inactive
ZNF444 (zinc finger protein 444) | 3 | 0.196 | 4.35 | inactive
STEAP4 (STEAP4 metalloreductase) | 1 | -0.196 | 1.59 | inactive
STEAP4 (STEAP4 metalloreductase) | 2 | -0.305 | 0.824 | inactive
STEAP4 (STEAP4 metalloreductase) | 3 | -0.0506 | 2.61 | inactive
ZNF23 (zinc finger protein 23) | 1 | -0.171 | 1.77 | inactive
ZNF23 (zinc finger protein 23) | 2 | -0.414 | 0.0533 | inactive
ZNF23 (zinc finger protein 23) | 3 | 0.426 | 5.96 | inactive
BCLAF1P1 (BCL2 associated transcription factor 1 pseudogene 1) | 1 | -0.944 | -3.68 | inactive
BCLAF1P1 (BCL2 associated transcription factor 1 pseudogene 1) | 2 | -0.462 | -0.281 | inactive
BCLAF1P1 (BCL2 associated transcription factor 1 pseudogene 1) | 3 | 3.26 | 25.9 | inactive
SLC19A4P | 1 | -0.547 | -0.878 | inactive
SLC19A4P | 2 | 1.86 | 16 | inactive
SLC19A4P | 3 | 0.267 | 4.85 | inactive
DPYD (dihydropyrimidine dehydrogenase) | 1 | -1.16 | -5.17 | inactive
DPYD (dihydropyrimidine dehydrogenase) | 2 | 5.62 | 42.5 | active
DPYD (dihydropyrimidine dehydrogenase) | 3 | -0.382 | 0.278 | inactive
RUSF1 (RUS family member 1) | 1 | 0.0161 | 3.08 | inactive
RUSF1 (RUS family member 1) | 2 | 0.486 | 6.38 | inactive
RUSF1 (RUS family member 1) | 3 | 0.0837 | 3.56 | inactive
LOC644852 (retired record) | 1 | 1.04 | 10.3 | inactive
LOC644852 (retired record) | 2 | 0.0948 | 3.63 | inactive
LOC644852 (retired record) | 3 | -0.107 | 2.22 | inactive
MTMR10 (myotubularin related protein 10) | 1 | -0.83 | -2.87 | inactive
MTMR10 (myotubularin related protein 10) | 2 | 0.702 | 7.91 | inactive
MTMR10 (myotubularin related protein 10) | 3 | 1.26 | 11.8 | inactive
HTRA3 (HtrA serine peptidase 3) | 1 | 1.09 | 10.7 | inactive
HTRA3 (HtrA serine peptidase 3) | 2 | 1.54 | 13.8 | inactive
HTRA3 (HtrA serine peptidase 3) | 3 | 0.384 | 5.67 | inactive
TSLIG2 (tRNA splicing ligase complex subunit 2) | 1 | -0.234 | 1.32 | inactive
TSLIG2 (tRNA splicing ligase complex subunit 2) | 2 | -1.25 | -5.84 | inactive
TSLIG2 (tRNA splicing ligase complex subunit 2) | 3 | -0.642 | -1.55 | inactive
UGDH (UDP-glucose 6-dehydrogenase) | 1 | -0.207 | 1.51 | inactive
UGDH (UDP-glucose 6-dehydrogenase) | 2 | -0.0954 | 2.3 | inactive
UGDH (UDP-glucose 6-dehydrogenase) | 3 | 6.32 | 47.4 | active
RTN4IP1 (reticulon 4 interacting protein 1) | 1 | -0.551 | -0.907 | inactive
RTN4IP1 (reticulon 4 interacting protein 1) | 2 | -0.143 | 1.96 | inactive
RTN4IP1 (reticulon 4 interacting protein 1) | 3 | 0.374 | 5.6 | inactive
UBB (ubiquitin B) | 1 | 0.96 | 9.72 | inactive
UBB (ubiquitin B) | 2 | 0.373 | 5.59 | inactive
UBB (ubiquitin B) | 3 | -0.459 | -0.262 | inactive
AMOTL2 (angiomotin like 2) | 1 | -0.998 | -4.05 | inactive
AMOTL2 (angiomotin like 2) | 2 | 0.549 | 6.83 | inactive
AMOTL2 (angiomotin like 2) | 3 | -0.771 | -2.46 | inactive
BTBD3 (BTB domain containing 3) | 1 | -1.21 | -5.54 | inactive
BTBD3 (BTB domain containing 3) | 2 | -0.776 | -2.49 | inactive
BTBD3 (BTB domain containing 3) | 3 | -1.24 | -5.77 | inactive
WASF3 (WASP family member 3) | 1 | 2.08 | 17.6 | inactive
WASF3 (WASP family member 3) | 2 | 0.24 | 4.65 | inactive
WASF3 (WASP family member 3) | 3 | 0.233 | 4.61 | inactive
NXPE1 (neurexophilin and PC-esterase domain family member 1) | 1 | 1.13 | 10.9 | inactive
NXPE1 (neurexophilin and PC-esterase domain family member 1) | 2 | 0.532 | 6.71 | inactive
NXPE1 (neurexophilin and PC-esterase domain family member 1) | 3 | 0.484 | 6.37 | inactive
